Data as given in PubChem BioAssay AID1259254 (NCATS, 2017).

Purpose: 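Genome-wide screen for genes that prevent DNA re-replication in cancer cells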 (primary screen)
Cells: human HCT116 colorectal cancer cells
Reagent: single siRNA against human genes
Duration: 3 days
Measurement: 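Nuclei stained with Hoechst and imaged; cell-cycle phase assigned by DNA content; G2 share scaled per plate, non-targeting siRNA 0%, GMNN siRNA 100%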
Direction: G2 robust z-score: higher = more G2 cells, more excess DNA replication
Call rule: 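Active siRNAs have a G2 robust z of 5 or more median absolute deviations over the median, which in these data means about 38% or higher of GMNN control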
In all, the deposit lists about 59,000 reagents; below is a part drawn at random. About 1,550 of all reagents (2.6%) count as active. 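G2 share is only a proxy for re-replication; each gene was hit by three separate siRNAs, and active genes were retested.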 Further read-outs or replicates are left out here. Not given: the amount of reagent.

G2 robust z-score, by gene knocked down and reagent
RAB40A (RAB40A, member RAS oncogene family): SID160730637 -1.18 inactive; SID160730638 4.94 inactive; SID160757978 0.891 inactive
IL22RA2 (interleukin 22 receptor subunit alpha 2): SID160755405 3.71 inactive; SID160755409 5.73 active; SID160755410 -0.772 inactive
GGA1: SID160724339 -1.21 inactive; SID160724340 -0.992 inactive; SID160727905 0.0965 inactive
CAB39 (calcium binding protein 39): SID160741260 1.55 inactive; SID160741261 2.23 inactive; SID160741262 -0.414 inactive
HSPB1 (heat shock protein family B (small) member 1): SID160723869 1.81 inactive; SID160723870 -0.343 inactive; SID160775400 2.35 inactive
FANCM (FA complementation group M): SID160746604 0.36 inactive; SID160746606 -0.463 inactive; SID160746607 -0.692 inactive
RPA1 (replication protein A1): SID160716007 1.37 inactive; SID160716008 1.18 inactive; SID160716009 3.03 inactive
SUGT1 (SGT1 assembly cochaperone of MIS12 kinetochore complex): SID160729492 -0.773 inactive; SID160729493 -0.601 inactive; SID160729494 -0.264 inactive
PCDHGA12 (protocadherin gamma subfamily A, 12): SID160737477 3.6 inactive; SID160737478 -1.02 inactive; SID160737480 -0.215 inactive
SEZ6L (seizure related 6 homolog like): SID160732768 0.253 inactive; SID160736519 5.84 active; SID160736520 -0.793 inactive
PCBP1-AS1 (PCBP1 antisense RNA 1): SID160767105 1.1 inactive; SID160767106 3.11 inactive; SID160767107 -0.783 inactive
GDE1 (glycerophosphodiester phosphodiesterase 1): SID160741029 1.65 inactive; SID160741030 2.5 inactive; SID160741031 2.36 inactive
ISL1-DT (ISL1 divergent transcript): SID160733767 2.6 inactive; SID160768594 0.311 inactive; SID160768595 0.486 inactive
PLS1 (plastin 1): SID160714498 1.3 inactive; SID160714499 2.39 inactive; SID160714500 0.0674 inactive
ZC3HAV1 (zinc finger CCCH-type containing, antiviral 1): SID160745168 -1.06 inactive; SID160745169 3.11 inactive; SID160745170 -0.0124 inactive
B4GALT7 (beta-1,4-galactosyltransferase 7): SID160730371 5.13 active; SID160730373 -0.828 inactive; SID160730374 -0.249 inactive
AHI1 (Abelson helper integration site 1): SID160733556 -0.636 inactive; SID160742198 -0.543 inactive; SID160742199 4.2 inactive
STMN4 (stathmin 4): SID160735002 -0.982 inactive; SID160750789 0.108 inactive; SID160750790 0.239 inactive
PDHX (pyruvate dehydrogenase complex component X): SID160719591 -0.213 inactive; SID160719592 0.427 inactive; SID160719593 7.19 active
MYO18A (myosin XVIIIA): SID160766841 2.26 inactive; SID160766842 -1.06 inactive; SID160766843 -0.812 inactive
ABCA8 (ATP binding cassette subfamily A member 8): SID160728236 0.803 inactive; SID160728237 -1.81 inactive; SID160728239 1.77 inactive
CBLN4 (cerebellin 4 precursor): SID160757836 -1.01 inactive; SID160757837 -0.389 inactive; SID160757838 0.369 inactive
KCTD14 (potassium channel tetramerization domain containing 14): SID160731764 -0.798 inactive; SID160748367 -0.969 inactive; SID160748368 -0.308 inactive

Entries above with an active call (4):
G2 robust z-score, by gene knocked down and reagent
IL22RA2 (interleukin 22 receptor subunit alpha 2): SID160755409 5.73 active
SEZ6L (seizure related 6 homolog like): SID160736519 5.84 active
B4GALT7 (beta-1,4-galactosyltransferase 7): SID160730371 5.13 active
PDHX (pyruvate dehydrogenase complex component X): SID160719593 7.19 active
